Test results taken from paper PMC11467166.
These are yes or no findings as the source states them, for the method shown. In cells and extracts the contact can be indirect. Some entries that bind do so weakly or less than the wild type.

Amino acid sequences for entries named in this document (tags omitted). Residues count along the entry.
UniProt Q13153, residues 70-117: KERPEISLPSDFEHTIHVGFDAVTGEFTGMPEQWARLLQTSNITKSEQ
UniProt Q13263: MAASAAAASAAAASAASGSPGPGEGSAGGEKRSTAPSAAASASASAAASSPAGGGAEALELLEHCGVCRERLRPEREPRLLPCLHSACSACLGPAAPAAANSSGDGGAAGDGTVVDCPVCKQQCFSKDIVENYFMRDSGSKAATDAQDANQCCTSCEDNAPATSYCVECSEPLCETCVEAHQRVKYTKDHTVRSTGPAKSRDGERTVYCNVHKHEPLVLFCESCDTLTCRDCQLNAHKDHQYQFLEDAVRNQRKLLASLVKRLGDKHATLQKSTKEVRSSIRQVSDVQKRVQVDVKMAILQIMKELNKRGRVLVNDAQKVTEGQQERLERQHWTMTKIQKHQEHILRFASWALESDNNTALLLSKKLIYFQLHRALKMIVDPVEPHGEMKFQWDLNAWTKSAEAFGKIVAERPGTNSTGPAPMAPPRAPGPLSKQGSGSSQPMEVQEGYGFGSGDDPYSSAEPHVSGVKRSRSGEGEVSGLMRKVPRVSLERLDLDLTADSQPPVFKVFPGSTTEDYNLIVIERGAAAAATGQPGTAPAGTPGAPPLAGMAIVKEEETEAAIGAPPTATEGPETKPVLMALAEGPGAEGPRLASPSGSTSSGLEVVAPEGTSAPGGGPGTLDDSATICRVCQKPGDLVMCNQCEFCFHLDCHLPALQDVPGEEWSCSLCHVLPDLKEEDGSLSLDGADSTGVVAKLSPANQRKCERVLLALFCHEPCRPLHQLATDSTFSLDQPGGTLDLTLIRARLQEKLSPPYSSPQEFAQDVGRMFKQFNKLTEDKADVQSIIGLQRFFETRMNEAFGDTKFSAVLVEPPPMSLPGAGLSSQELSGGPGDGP
UniProt P60953: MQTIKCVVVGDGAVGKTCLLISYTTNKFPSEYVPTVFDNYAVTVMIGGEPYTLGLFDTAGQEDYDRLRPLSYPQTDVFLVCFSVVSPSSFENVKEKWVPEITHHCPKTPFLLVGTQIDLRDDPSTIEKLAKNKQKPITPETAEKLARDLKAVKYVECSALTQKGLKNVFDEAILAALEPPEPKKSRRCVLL
UniProt Q06945: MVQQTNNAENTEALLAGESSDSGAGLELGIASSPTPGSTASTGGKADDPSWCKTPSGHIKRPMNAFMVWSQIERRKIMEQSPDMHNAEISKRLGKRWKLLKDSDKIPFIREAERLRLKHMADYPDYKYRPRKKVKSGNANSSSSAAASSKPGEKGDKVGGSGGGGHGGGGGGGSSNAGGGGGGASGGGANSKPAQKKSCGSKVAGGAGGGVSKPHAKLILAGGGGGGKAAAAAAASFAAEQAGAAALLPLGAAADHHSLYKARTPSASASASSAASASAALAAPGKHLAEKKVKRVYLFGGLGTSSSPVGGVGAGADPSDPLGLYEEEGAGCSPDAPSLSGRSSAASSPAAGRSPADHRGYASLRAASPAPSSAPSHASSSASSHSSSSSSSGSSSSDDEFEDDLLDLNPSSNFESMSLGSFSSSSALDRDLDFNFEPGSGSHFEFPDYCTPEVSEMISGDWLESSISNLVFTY
UniProt P35716: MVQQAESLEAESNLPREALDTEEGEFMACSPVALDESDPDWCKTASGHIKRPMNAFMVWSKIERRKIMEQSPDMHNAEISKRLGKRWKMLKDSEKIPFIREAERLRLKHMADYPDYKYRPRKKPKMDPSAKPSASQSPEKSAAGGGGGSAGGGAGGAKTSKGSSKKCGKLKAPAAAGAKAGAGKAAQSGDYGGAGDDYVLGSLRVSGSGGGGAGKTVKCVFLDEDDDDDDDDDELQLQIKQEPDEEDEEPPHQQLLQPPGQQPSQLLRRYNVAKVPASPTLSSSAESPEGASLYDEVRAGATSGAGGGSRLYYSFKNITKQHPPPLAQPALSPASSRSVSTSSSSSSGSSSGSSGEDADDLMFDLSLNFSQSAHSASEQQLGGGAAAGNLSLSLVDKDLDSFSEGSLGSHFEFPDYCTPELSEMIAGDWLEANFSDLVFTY

Key:
GST-Pak1 70-117 = GST-Pak1 70-117 (UniProt Q13153); assay: pull-down; 60 μg GST-RBD or GST-PBD beads incubated with about 800 μg U251 lysate (50 mM Tris pH 7.6, 150 mM NaCl, 1% Triton X-100, 20 mM MgCl2), 1 h, 4°C; cells taken at 0-7 days after lentiviral infection (SOX4, SOX11, NGN2, NGN2-SOX4, NGN2-SOX11); immunoblot for RhoA, RAC1, CDC42; only the target purified
HA-TRIM28 = HA-TRIM28 (UniProt Q13263); assay: co-IP; U251 cells transfected with SOX4/11 with or without HA-TRIM28; whole cell lysates (1xPBS, 1 mM EDTA, 0.5% Triton X-100) precipitated with anti-HA magnetic beads, 2 h, 4°C; immunoblot for SOX4 and SOX11

Row | binding (GST-Pak1 70-117) | binding (HA-TRIM28) | Substance
1 | binds |  | GTP-CDC42 (from UniProt P60953 1-191)
2 |  | binds | SOX4 (from UniProt Q06945 1-474)
3 |  | binds | SOX11 (from UniProt P35716 1-441)
